Experiment [1] deals with SmBiT-fused human MAVS (Mitochondrial antiviral signaling protein), full length (pBit2.1-N[TK/SmBit]-MAVS) (human) (UniProt Q7Z434). Put plainly: split reporter.
Experiment [2] has as its target T1, SmBiT-fused human IRF3 (pBit2.1-N[TK/SmBit]-IRF3) (human) (UniProt Q14653).
T1 sequence: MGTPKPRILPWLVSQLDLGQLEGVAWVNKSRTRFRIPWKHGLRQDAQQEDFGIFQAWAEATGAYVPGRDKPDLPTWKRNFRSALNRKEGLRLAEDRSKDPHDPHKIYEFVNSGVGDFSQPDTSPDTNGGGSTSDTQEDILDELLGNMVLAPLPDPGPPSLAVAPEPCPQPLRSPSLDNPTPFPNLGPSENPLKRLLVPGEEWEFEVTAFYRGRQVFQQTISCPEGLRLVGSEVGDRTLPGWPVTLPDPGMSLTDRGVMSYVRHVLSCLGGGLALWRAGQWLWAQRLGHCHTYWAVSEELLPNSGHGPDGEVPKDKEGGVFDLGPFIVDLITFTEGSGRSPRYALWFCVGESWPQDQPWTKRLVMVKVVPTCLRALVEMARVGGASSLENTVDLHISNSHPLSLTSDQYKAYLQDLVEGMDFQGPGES
Description: split reporter.

Protein sequences, listed by entry. Tags and fused reporters are not part of them.
UniProt Q7Z434: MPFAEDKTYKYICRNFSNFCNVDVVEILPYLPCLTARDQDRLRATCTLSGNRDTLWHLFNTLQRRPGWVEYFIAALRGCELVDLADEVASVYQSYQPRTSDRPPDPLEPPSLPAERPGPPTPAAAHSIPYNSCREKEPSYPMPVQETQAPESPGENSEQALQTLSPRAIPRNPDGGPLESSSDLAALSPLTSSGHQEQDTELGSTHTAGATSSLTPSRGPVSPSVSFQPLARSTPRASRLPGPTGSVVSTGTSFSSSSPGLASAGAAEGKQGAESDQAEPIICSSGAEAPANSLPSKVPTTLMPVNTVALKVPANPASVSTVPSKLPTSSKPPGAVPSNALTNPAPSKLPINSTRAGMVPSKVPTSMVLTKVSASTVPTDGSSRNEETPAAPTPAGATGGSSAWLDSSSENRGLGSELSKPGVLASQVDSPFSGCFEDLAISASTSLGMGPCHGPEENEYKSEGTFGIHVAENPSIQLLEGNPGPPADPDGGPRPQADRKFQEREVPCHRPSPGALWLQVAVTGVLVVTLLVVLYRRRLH

Results are given in words; binding and its absence hold for the method and conditions named. Binding seen in cells or lysates may run through a third protein. Some results given as binding are weak or reduced against the parent protein; the word gives no strength. Where a sequence is shown, tags or fusion partners need not be part of it.

Data on one molecule can be found in paper doi:10.1101/2025.10.17.683117.

B1: LgBiT-fused NSs protein of Sandfly fever Sicilian virus (pBiT1.1-N[TK/LgBiT]-SFSV-NSs) (protein, UniProt P12792 1-267)
chain: MINNNMMNSQYMFDYPAINIDVRCHRLLSSVSYVAYNKFHTHDVSTYEHCEIPLEKLRLGFGRRNSLADFYSLGELPASWGPACYFSSVKPMMYTFQGMASDLSRFDLTSFSRKGLPNVLKALSWPLGIPDCEIFSICSDRFVRGLQTRDQLMSYILRMGDSHSLDECIVQAHKKILQEARRLGLSDEHYNGYDLFREIGSLVCLRLINAEPFDTASSGEALDVRTVIRSYRASDPSTGLTEYGNSLWTPIHSHVDENDESSSDSDF
B1: the binding result was “no binding” in experiment [1] and “binds” in experiment [2].
